From patent US20230406833A1, “HERBICIDAL MALONAMIDES” (BASF SE, priority 2020, published 2023)
Some entries share one result that the patent states for a list of compounds.

These compounds were tested on Apera spica-venti (APESV) (assay: greenhouse pre-emergence herbicidal test). Conditions: 0.250 kg/ha, scale from 0 to 100.
Format: in vivo
Source text: (§1) The culture containers used were plastic flowerpots containing loamy sand with approximately 3.0% of humus as the substrate. The seeds of the test plants were sown separately for each species.
(§2) For the pre-emergence treatment, the active ingredients, which had been suspended or emulsified in water, were applied directly after sowing by means of finely distributing nozzles. The containers were irrigated gently to promote germination and growth and subsequently covered with transparent plastic hoods until the test plants had rooted. This cover caused uniform germination of the test plants, unless this had been impaired by the active ingredients. For the post-emergence treatment, the test plants were first grown to a height of 3 to 15 cm, depending on the plant habit, and only then treated with the active ingredients which had been suspended or emulsified in water. For this purpose, the test plants were either shown directly and grown in the same containers, or they were first grown separately as seedlings and transplanted into the test containers a few days prior to treatment.
(§3) Depending on the species, the test plants were kept at 10-25° C. or 20-35° C., respectively. The test period extended over 2 to 4 weeks. During this time, the test plants were tended, and their response to the individual treatments was evaluated.
(§4) Evaluation was carried out using a scale from 0 to 100. 100 means no emergence of the test plants, or complete destruction of at least the aerial moieties, and 0 means no damage, or normal course of growth. A good herbicidal activity is given at values of 70 to <90 and a very good herbicidal activity is given at values of 90 to 100.
(§5) The test plants used in the greenhouse experiments were of the following species: […]

Compound	herbicidal activity against APESV
CC(CCC(=O)OCC(F)(F)F)NC(=O)C1(C(=O)Nc2cc(F)cc(F)c2)CCO1 (stereo not drawn) [I.154]	very good (a very good herbicidal activity is given at values of 90 to 100)
O=C(O)C1=CC[C@H](NC(=O)C2(C(=O)Nc3cc(Cl)cc(Cl)c3)C=CCO2)C1 (stereo partly drawn) [I.85]	very good (a very good herbicidal activity is given at values of 90 to 100)
COC(=O)C1CC(F)C(NC(=O)C2(C(=O)Nc3cc(Cl)cc(Cl)c3)C=CCO2)C1 (stereo not drawn) [I.91]	very good (a very good herbicidal activity is given at values of 90 to 100)
CC(CC(=O)O)NC(=O)C1(C(=O)Nc2cc(F)cc(F)c2)CCO1 (stereo not drawn) [I.137]	very good (a very good herbicidal activity is given at values of 90 to 100)
COC(=O)C(C)(C)NC(=O)C1(C(=O)Nc2cc(F)cc(F)c2)CCO1 (stereo not drawn) [I.145]	very good (a very good herbicidal activity is given at values of 90 to 100)
CC(CCC(=O)OCCF)NC(=O)C1(C(=O)Nc2cc(F)cc(F)c2)CCO1 (stereo not drawn) [I.160]	very good (a very good herbicidal activity is given at values of 90 to 100)

The compounds below were run on Echinocloa crus-galli (ECHCG) (assay: greenhouse pre-emergence herbicidal test). Conditions: 0.250 kg/ha, scale from 0 to 100.
Format: in vivo
Source text: as §1, §2, §3, §4, §5

Compound	herbicidal activity against ECHCG
CC(CCC(=O)OCC(F)(F)F)NC(=O)C1(C(=O)Nc2cc(F)cc(F)c2)CCO1 (stereo not drawn) [I.154]	very good (a very good herbicidal activity is given at values of 90 to 100)
O=C(O)C1=CC[C@H](NC(=O)C2(C(=O)Nc3cc(Cl)cc(Cl)c3)C=CCO2)C1 (stereo partly drawn) [I.85]	good (A good herbicidal activity is given at values of 70 to <90)
COC(=O)C1CC(F)C(NC(=O)C2(C(=O)Nc3cc(Cl)cc(Cl)c3)C=CCO2)C1 (stereo not drawn) [I.91]	good (A good herbicidal activity is given at values of 70 to <90)
CC(CC(=O)O)NC(=O)C1(C(=O)Nc2cc(F)cc(F)c2)CCO1 (stereo not drawn) [I.137]	very good (a very good herbicidal activity is given at values of 90 to 100)
COC(=O)C(C)(C)NC(=O)C1(C(=O)Nc2cc(F)cc(F)c2)CCO1 (stereo not drawn) [I.145]	very good (a very good herbicidal activity is given at values of 90 to 100)
CC(CCC(=O)OCCF)NC(=O)C1(C(=O)Nc2cc(F)cc(F)c2)CCO1 (stereo not drawn) [I.160]	very good (a very good herbicidal activity is given at values of 90 to 100)

These compounds were tested on Setaria viridis (SETVI) (assay: greenhouse post-emergence herbicidal test). Conditions: 0.250 kg/ha, scale from 0 to 100.
Format: in vivo
Source text: as §1, §2, §3, §4, §5

Compound	herbicidal activity against SETVI
CC(CCC(=O)OCC(F)(F)F)NC(=O)C1(C(=O)Nc2cc(F)cc(F)c2)CCO1 (stereo not drawn) [I.154]	very good (a very good herbicidal activity is given at values of 90 to 100)
O=C(O)C1=CC[C@H](NC(=O)C2(C(=O)Nc3cc(Cl)cc(Cl)c3)C=CCO2)C1 (stereo partly drawn) [I.85]	very good (a very good herbicidal activity is given at values of 90 to 100)
COC(=O)C1CC(F)C(NC(=O)C2(C(=O)Nc3cc(Cl)cc(Cl)c3)C=CCO2)C1 (stereo not drawn) [I.91]	good (A good herbicidal activity is given at values of 70 to <90)
CC(CC(=O)O)NC(=O)C1(C(=O)Nc2cc(F)cc(F)c2)CCO1 (stereo not drawn) [I.137]	very good (a very good herbicidal activity is given at values of 90 to 100)
COC(=O)C(C)(C)NC(=O)C1(C(=O)Nc2cc(F)cc(F)c2)CCO1 (stereo not drawn) [I.145]	very good (a very good herbicidal activity is given at values of 90 to 100)
CC(CCC(=O)OCCF)NC(=O)C1(C(=O)Nc2cc(F)cc(F)c2)CCO1 (stereo not drawn) [I.160]	very good (a very good herbicidal activity is given at values of 90 to 100)

Each compound was assayed on Amaranthus retroflexus (AMARE) (assay: greenhouse post-emergence herbicidal test). Conditions: 0.250 kg/ha, scale from 0 to 100.
Format: in vivo
Source text: as §1, §2, §3, §4, §5

Compound	herbicidal activity against AMARE
CC(CCC(=O)OCC(F)(F)F)NC(=O)C1(C(=O)Nc2cc(F)cc(F)c2)CCO1 (stereo not drawn) [I.154]	very good (a very good herbicidal activity is given at values of 90 to 100)
O=C(O)C1=CC[C@H](NC(=O)C2(C(=O)Nc3cc(Cl)cc(Cl)c3)C=CCO2)C1 (stereo partly drawn) [I.85]	very good (a very good herbicidal activity is given at values of 90 to 100)
COC(=O)C1CC(F)C(NC(=O)C2(C(=O)Nc3cc(Cl)cc(Cl)c3)C=CCO2)C1 (stereo not drawn) [I.91]	good (A good herbicidal activity is given at values of 70 to <90)
CC(CC(=O)O)NC(=O)C1(C(=O)Nc2cc(F)cc(F)c2)CCO1 (stereo not drawn) [I.137]	very good (a very good herbicidal activity is given at values of 90 to 100)
COC(=O)C(C)(C)NC(=O)C1(C(=O)Nc2cc(F)cc(F)c2)CCO1 (stereo not drawn) [I.145]	very good (a very good herbicidal activity is given at values of 90 to 100)
CC(CCC(=O)OCCF)NC(=O)C1(C(=O)Nc2cc(F)cc(F)c2)CCO1 (stereo not drawn) [I.160]	very good (a very good herbicidal activity is given at values of 90 to 100)

These compounds were tested on Echinocloa crus-galli (ECHCG) (assay: greenhouse post-emergence herbicidal test). Conditions: 0.250 kg/ha, scale from 0 to 100.
Format: in vivo
Source text: as §1, §2, §3, §4, §5

Compound	herbicidal activity against ECHCG
CC(CCC(=O)OCC(F)(F)F)NC(=O)C1(C(=O)Nc2cc(F)cc(F)c2)CCO1 (stereo not drawn) [I.154]	very good (a very good herbicidal activity is given at values of 90 to 100)
O=C(O)C1=CC[C@H](NC(=O)C2(C(=O)Nc3cc(Cl)cc(Cl)c3)C=CCO2)C1 (stereo partly drawn) [I.85]	very good (a very good herbicidal activity is given at values of 90 to 100)
COC(=O)C1CC(F)C(NC(=O)C2(C(=O)Nc3cc(Cl)cc(Cl)c3)C=CCO2)C1 (stereo not drawn) [I.91]	good (A good herbicidal activity is given at values of 70 to <90)
CC(CC(=O)O)NC(=O)C1(C(=O)Nc2cc(F)cc(F)c2)CCO1 (stereo not drawn) [I.137]	very good (a very good herbicidal activity is given at values of 90 to 100)
COC(=O)C(C)(C)NC(=O)C1(C(=O)Nc2cc(F)cc(F)c2)CCO1 (stereo not drawn) [I.145]	very good (a very good herbicidal activity is given at values of 90 to 100)
CC(CCC(=O)OCCF)NC(=O)C1(C(=O)Nc2cc(F)cc(F)c2)CCO1 (stereo not drawn) [I.160]	very good (a very good herbicidal activity is given at values of 90 to 100)
